This is one part of the list.

The chains behind the UniProt entries cited, without tags or fusion partners.
UniProt Q0JBA9, entry or part of it: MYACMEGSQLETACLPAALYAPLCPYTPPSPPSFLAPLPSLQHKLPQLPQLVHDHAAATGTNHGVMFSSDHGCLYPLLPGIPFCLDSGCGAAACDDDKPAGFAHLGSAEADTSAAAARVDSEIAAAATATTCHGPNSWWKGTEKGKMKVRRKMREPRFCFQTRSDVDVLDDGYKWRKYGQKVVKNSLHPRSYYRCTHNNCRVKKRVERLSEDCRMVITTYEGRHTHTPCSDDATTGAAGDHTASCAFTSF

This experiment addresses OsWRKY34 (Oryza sativa, UniProt Q0JBA9 1-250). In words: protein-binding microarray (RPBM); PBS, 2% BSA, 51.3 ng/ul salmon testes DNA, 50 uM zinc acetate, 200 nM TF, 25 C, 1 h; high values mean tight binding. To be noted: protein: recombinant; tags: N-terminal polyhistidine and DsRed monomer fusion (pET32a); label: CyDye5-dUTP incorporated in the synthesized complementary strand; 3' TTTTT single-stranded linker to array surface; dsDNA, one strand shown. The procedure, abridged: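 Using Ni–NTA, transcription factors fused N-terminally to polyhistidine and DsRed were purified after expression in E. coli BL21-CodonPlus. These were incubated at 200 nM with a blocked, double-stranded custom Agilent array for 1 h at 25 °C in a buffer containing 50 µM zinc acetate, and the array was washed. The binding signal is per-feature fluorescence intensity (arbitrary units) on an Axon 4000B scanner.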
Consider “CTCGTCATCACATGGCCGCCGCCGCAACCACCACCGCCGCCGGAGTCACCTAGTGCAG”, for which the binding signal is 9370 fluorescence intensity (a.u.). The value for “CCACCACCGCGCCACCATGGGCGCCGCCACCGCCCAGCCGCGGAGTCACCTAGTGCAG” was 9610 fluorescence intensity (a.u.).

“CGCCAACGCCACGCCGAGCCTCGCGCCGCTCTTATATTACCGGAGTCACCTAGTGCAG”: the binding signal was 10400 fluorescence intensity (a.u.). On to “TTCGCTGCAGTGTCTTTCCTGCCTTGCAATTGCAAATCCTCGGAGTCACCTAGTGCAG”, for which the binding signal is 8020 fluorescence intensity (a.u.). With “CTCTTCTCTCTCCCCTTTTTTGGTTCAAGCTCACCACGCCCGGAGTCACCTAGTGCAG” the figure was 8140 fluorescence intensity (a.u.); with “TGACACCACTGCACAAGTTTAGGGACCGCCTATGTACTTCCGGAGTCACCTAGTGCAG”, 8270 fluorescence intensity (a.u.). The value for “CGCAACACACGCACTCCAGGTAAACCCTACGACTCCAGCTCGGAGTCACCTAGTGCAG” was 8840 fluorescence intensity (a.u.); that for “ACATTATGGCATTCATGTTCACTATTCACATTTTCACATCCGGAGTCACCTAGTGCAG” was 9590 fluorescence intensity (a.u.); that for “CAATCAACTTCTTCTTTCTTCGTGTTCTTCAGCTCTGCTACGGAGTCACCTAGTGCAG” was 10200 fluorescence intensity (a.u.).

On to “CTGCCCACCGCCGCTGCGCCCGCCGCCCACCGCCCGCCGACGGAGTCACCTAGTGCAG”, for which the binding signal is 10500 fluorescence intensity (a.u.).

Take “GCTACTATTTTCTTGTTTTTTATGTGTACGTTTCCCGAATCGGAGTCACCTAGTGCAG”: the binding signal was 11100 fluorescence intensity (a.u.).

Regarding “CATGTCATCCTTCCACCATCGATCTCTCCATCTCTTTCATCGGAGTCACCTAGTGCAG”, the binding signal is 8430 fluorescence intensity (a.u.). In the case of “TTTTTTTTGCTGGAATTCTTGTTGTGGGGTAAGGCGCAAACGGAGTCACCTAGTGCAG”, the binding signal was 11800 fluorescence intensity (a.u.). With “AGCGCAACTCGTCGCCGCCGTGCCGTTGCGTTTCTCGTTACGGAGTCACCTAGTGCAG” the figure was 8510 fluorescence intensity (a.u.). With “TTTCGATTGCAATTTCGTTAGTTTCTGTGCCTTTTTGCTCCGGAGTCACCTAGTGCAG” the figure was 8180 fluorescence intensity (a.u.); with “TGCATGAATTTTGTGTTGTATATCAGGTAGTCTATTTTTTCGGAGTCACCTAGTGCAG”, 10800 fluorescence intensity (a.u.). With “GGTTGGTTCTTTTGCTACTGCTTGCCTTTTCTGACTCGCTCGGAGTCACCTAGTGCAG” the figure was 12000 fluorescence intensity (a.u.); with “GCCGTCTCGGGTTGGGCCAGCCGCCGTCGCGCCTCTGCTCCGGAGTCACCTAGTGCAG”, 8600 fluorescence intensity (a.u.); with “CTGCATCACCTTCACCTGATCACATCCATATTTGCAATTACGGAGTCACCTAGTGCAG”, 8970 fluorescence intensity (a.u.). As for “TCTTGCAATCTTGATCGATAGTCTCCTCCATCTTCTTCGTCGGAGTCACCTAGTGCAG”, the binding signal was 8680 fluorescence intensity (a.u.).

As to “TTCTCGTCCGAAGTCCTCTGTGCGTCCCTCTTCCTTCATTCGGAGTCACCTAGTGCAG”, the binding signal was 10100 fluorescence intensity (a.u.). With “CTTGATTTCTGCGTTCATATTCTTTTCAATGTTGCAGGGGCGGAGTCACCTAGTGCAG” the figure was 9460 fluorescence intensity (a.u.); with “TGCCCTCAGTTTTTATTTATGGGCCGGTCCATATCCGACACGGAGTCACCTAGTGCAG”, 8060 fluorescence intensity (a.u.).

For the origin of these results see PMC7819943, “Rice protein-binding microarrays: a tool to detect cis-acting elements near promoter regions in rice”.
